According to PubChem BioAssay AID2685 (National Center for Advancing Translational Sciences (NCATS), 2010):
This is one part of the list. The main result of the screen is listed elsewhere. These columns were measured beside it and carry no call. Most of these compounds were active or inconclusive in the main read-out, so they are no random draw. The note in brackets gives the kind of curve behind each potency; many fits are weak.

Assay: qHTS Assay for Lipid Storage Modulators in Drosophila S3 Cells;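 as to cell number change: cells counted by Cell Tracker Red CMTPX staining in the red channel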
Conditions: BODIPY lipid droplet fluorescence, 18-24 h; for cell number change: measured here: cell count max response, cells fed with added oleic acid
Procedure, shortened: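 Laser-scanning cytometry quantifies lipid droplet accumulation (500–530 nm total intensity; droplet/cell object ratio) in oleic acid-fed (400 uM added) Drosophila S3 cells treated with a concentration series. 20 uM Triacsin C defined 100% inhibition.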

[1] = measured here: lipid fluorescence (Fed channel) AC50, cells fed with added oleic acid
[2] = measured here: cell number channel AC50, cells fed with added oleic acid

Structure (SMILES): CCOC(=O)C1=C(C)NC(C)=C(C(=O)OCC)C1C(=O)OCC(=O)N1c2ccccc2CC1C (stereo unspecified)
- cell number change: 6.11%

Structure (SMILES): Cn1c(=O)[nH]c(=O)c2c1nc(Br)n2Cc1ccccc1Cl
- cell number change: -2.52%
- AC50 [1]: 11.6 µM [rising, partial curve]

Structure (SMILES): O=C(CN(Cc1ccccc1)S(=O)(=O)c1ccc(Cl)cc1)NCC1CCCO1 (stereo unspecified)
- cell number change: 19.7%

Structure (SMILES): COc1ccccc1NS(=O)(=O)c1ccc(C(N)=O)cc1
- cell number change: 0.616%
- AC50 [1]: 4.61 µM [rising, full curve, poor fit]

Structure (SMILES): O=C(CSc1nnnn1-c1cccnc1)Nc1ccccc1F
- cell number change: -4.7%
- AC50 [1]: 5.8 µM [rising, full curve]

Structure (SMILES): COc1cc2c(cc1OC)CN(C(=O)c1ccco1)CC2
- cell number change: 2.1%

Structure (SMILES): CCOC(=O)c1cnc(-n2nc(C)cc2C)nc1Nc1cccc(C(=O)O)c1
- cell number change: 9.71%

Structure (SMILES): Cc1cc(C(=O)CSc2nnnn2-c2ccccc2)c(C)n1-c1ccc2c(c1)OCO2
- cell number change: 8.15%
- AC50 [1]: 0.103 µM [falling, full curve, poor fit]

Structure (SMILES): COc1ccc(-c2ccc(C(=S)N3CCN(C(C)=O)CC3)o2)cc1
- cell number change: -14.4%

Structure (SMILES): O=[N+]([O-])c1ccc(Cl)c(/C=N/Nc2nc(N3CCOCC3)nc(N3CCOCC3)n2)c1
- cell number change: 28.2%
- AC50 [2]: 0.231 µM [rising, full curve, poor fit]
- AC50 [1]: 3.66 µM [rising, full curve]

Structure (SMILES): CCN(CC)CCCn1c2c(c(SCC(=O)Nc3cccc(C(C)=O)c3)nc1=O)CCC2
- cell number change: -3.52%

Structure (SMILES): CCOc1ccc(/C=N/NC(=O)Cc2csc(Nc3cccc(C(F)(F)F)c3)n2)cc1
- cell number change: -92.8%
- AC50 [2]: 29.1 µM [falling, single point]
- AC50 [1]: 29.1 µM [falling, single point]

Structure (SMILES): O=S1(=O)CC(O)C(NCc2ccco2)C1 (stereo unspecified)
- cell number change: -12.9%
- AC50 [1]: 29.1 µM [falling, single point]

Structure (SMILES): COc1cc(CN2CCCCCC2)cc(Br)c1O
- cell number change: 36.1%
- AC50 [2]: 0.184 µM [rising, full curve, poor fit]

Structure (SMILES): COc1ccc(NC(=O)COC(=O)c2cc(Cl)ccc2O)cc1S(=O)(=O)N1CCCCC1
- cell number change: 1.38%
- AC50 [1]: 0.103 µM [rising, full curve, poor fit]

Structure (SMILES): COc1ccc(C(=O)OCC#CCSc2nnc(-c3cccc4ccccc34)o2)cc1
- AC50 [2]: 0.13 µM [rising, full curve, poor fit]
- AC50 [1]: 0.146 µM [rising, full curve, poor fit]

Structure (SMILES): Cc1ccc(C(C(=O)NC2CCCCC2)N(C(=O)c2csnn2)C2CC2)cc1 (stereo unspecified)
- cell number change: -17.9%

Structure (SMILES): O=c1c2cn(Cc3ccccc3)c3ccccc3c-2nn1Cc1ccc(F)cc1Cl
- cell number change: 19.4%
- AC50 [2]: 7.31 µM [rising, single point]

Structure (SMILES): COCCCN1CN=C(Nc2nc3ccccc3o2)NC1
- cell number change: 33.4%
- AC50 [2]: 5.8 µM [rising, partial curve, poor fit]
- AC50 [1]: 32.6 µM [rising, single point]

Structure (SMILES): O=C(Nc1cc(Oc2ccccc2)cc([N+](=O)[O-])c1)C12CC3CC(C1)CC(n1cnc(Cl)n1)(C3)C2
- cell number change: 0.0358%
- AC50 [1]: 10.3 µM [falling, single point]

Structure (SMILES): CCN(CC)C(=O)CSc1nnc(-c2ccccc2)n1-c1ccccc1
- cell number change: 63.1%
- AC50 [2]: 29.1 µM [rising, single point]
- AC50 [1]: 0.058 µM [falling, partial curve, poor fit]

Structure (SMILES): CCCC(=O)Nc1cccc(C(=O)Nc2ccccc2OCC)c1
- cell number change: -6.05%

Structure (SMILES): CCCCN(CC)Cc1c(C)[nH]c2c(ccc3ccccc32)c1=O
- cell number change: -32.6%
- AC50 [2]: 32.6 µM [falling, single point]

Structure (SMILES): C#Cc1cccc(-n2nnc(C(C)=O)c2C)c1
- cell number change: -28.4%
- AC50 [1]: 32.6 µM [falling, single point]

Structure (SMILES): O=C(NCC1CCCO1)/C(=C\c1ccc(Cl)cc1)NC(=O)c1ccccc1 (stereo unspecified)
- cell number change: -29.9%

Structure (SMILES): CC(O)C(NS(=O)(=O)c1ccc(Cl)cc1)C(=O)OCc1nnc(-c2ccccc2)o1 (stereo unspecified)
- cell number change: -50%

Structure (SMILES): Cc1ccc(/C=C2/NC(=O)N(Cc3ccccc3)C2=O)o1
- cell number change: 26.2%
- AC50 [1]: 4.61 µM [rising, partial curve]

Structure (SMILES): COc1ccc(CCNC(=O)CCCn2c(=O)c3cccn3c3cccnc32)c(OC)c1
- AC50 [1]: 13 µM [falling, partial curve]

Structure (SMILES): Cc1cccc(N(CC(=O)NC2CCCCC2)C(=O)c2ccc(C)s2)c1
- cell number change: -19.8%
- AC50 [1]: 18.4 µM [falling, single point]

Structure (SMILES): CCS(=O)(=O)N1CCC(NC(=O)C(Cc2ccc(OC)c(OC)c2)NC(C)=O)CC1 (stereo unspecified)
- cell number change: 1.76%
- AC50 [1]: 1.16 µM [rising, partial curve]

Structure (SMILES): Cc1coc2c1c(C)cc1oc(=O)c(CC(=O)NCCCCCC(=O)O)c(C)c12
- AC50 [1]: 0.58 µM [falling, single point]

Structure (SMILES): CCCC(C)NC(=O)Cc1ccccc1[N+](=O)[O-] (stereo unspecified)
- cell number change: 14.5%
- AC50 [2]: 0.291 µM [rising, full curve, poor fit]
- AC50 [1]: 14.6 µM [rising, single point]

Structure (SMILES): O=C1c2cccc3cccc(c23)C(=O)N1CCCN1CCN(c2ccc(F)cc2)CC1
- cell number change: 23.2%
- AC50 [1]: 0.651 µM [falling, partial curve, poor fit]

Structure (SMILES): O=C(NCCO)c1cccc(Cl)c1
- AC50 [1]: 20.6 µM [falling, partial curve]

Structure (SMILES): CC1(C)CC(n2c(=S)[nH]c3ccccc3c2=O)CCO1 (stereo unspecified)
- AC50 [2]: 2.31 µM [rising, single point]

Structure (SMILES): Cc1cccc(OCc2nnc(SCC(=O)N3CCN(c4ccccc4)CC3)o2)c1C
- cell number change: 12.9%
- AC50 [1]: 0.0731 µM [rising, full curve, poor fit]

Structure (SMILES): COc1cccc(C(C(=O)NC2CCCC2)N(C(=O)c2ccco2)c2ccccc2)c1OC (stereo unspecified)
- cell number change: -37.3%
- AC50 [2]: 0.206 µM [falling, full curve, poor fit]
- AC50 [1]: 6.51 µM [rising, single point]

Structure (SMILES): Cc1ccccc1C(=O)N1CCN(c2ccc([N+](=O)[O-])c(NCc3ccco3)c2)CC1
- cell number change: -12.7%

Structure (SMILES): O=C(O)CSc1nnc(C2CC2)n1-c1ccccc1
- cell number change: 9.64%
- AC50 [1]: 0.92 µM [falling, full curve, poor fit]

Structure (SMILES): COc1ccc(C(C)C)cc1S(=O)(=O)N1CCC(C(=O)NCc2cccnc2)CC1
- AC50 [2]: 0.326 µM [rising, full curve]
- AC50 [1]: 29.1 µM [rising, single point]
